PubChem BioAssay AID1259254 – NCATS, 2017
Screen: 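Genome-wide screen for genes that prevent DNA re-replication in cancer cells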 (primary screen). Cells: human HCT116 colorectal cancer cells. Knock-down reagent: single siRNA against human genes. Timing: 3 days. Detection: 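Imaged Hoechst DNA stain sorts each cell into a cycle phase by DNA amount; per plate, G2 fraction set to 0% for non-targeting and 100% for GMNN siRNA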. Scale: G2 robust z-score and G2 cells, % of GMNN control: higher = more G2 cells, more excess DNA replication; raw share of cells in G2: higher = larger share of cells with G2 DNA content. Active means: 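An siRNA counts as active if its G2 robust z-score lies at least 5 MADs above the screen median; here such calls match roughly 38% of GMNN control or more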.
The deposit covers about 59,000 reagents; shown is a random part of them. Over the whole deposit, about 1,550 (2.6%) got an active call. 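G2 share is only a proxy for re-replication; each gene was hit by three separate siRNAs, and active genes were retested.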 The raw values are shown without normalisation. The numbers tell different reagents against one gene apart. Reagent sequences are not shown. The record does not give: the amount of reagent.

target,siRNA no.,G2 robust z-score,"G2 cells, % of GMNN control",raw share of cells in G2 (%),Outcome
AMELX,1,1.04,10.3,10.1,inactive
AMELX,2,-0.462,-0.281,3.98,inactive
AMELX,3,4.38,33.8,16.8,inactive
PLCH1,1,1.61,14.3,12.1,inactive
PLCH1,2,-0.357,0.456,4.31,inactive
PLCH1,3,-0.421,0.0076,3.87,inactive
LGALS7B,1,-0.171,1.77,4.09,inactive
LGALS7B,2,-0.191,1.62,3.77,inactive
LGALS7B,3,-0.263,1.12,3.11,inactive
LSP1P4,1,-0.384,0.266,2.86,inactive
LSP1P4,2,-0.576,-1.08,2.85,inactive
LSP1P4,3,0.191,4.31,4.76,inactive

Continued; the last 4 above are carried over.
target,siRNA no.,G2 robust z-score,"G2 cells, % of GMNN control",raw share of cells in G2 (%),Outcome
LGALS7B,3,-0.263,1.12,3.11,inactive
LSP1P4,1,-0.384,0.266,2.86,inactive
LSP1P4,2,-0.576,-1.08,2.85,inactive
LSP1P4,3,0.191,4.31,4.76,inactive
MAP6,1,0.223,4.53,4.99,inactive
MAP6,2,-0.474,-0.368,4.82,inactive
MAP6,3,2.3,19.2,11.8,inactive
RUNDC3B,1,-0.524,-0.72,3.34,inactive
RUNDC3B,2,0.187,4.28,4.4,inactive
RUNDC3B,3,-0.349,0.515,2.92,inactive
MAP3K7CL,1,-0.544,-0.86,4.01,inactive
MAP3K7CL,2,-0.443,-0.149,4.39,inactive
MAP3K7CL,3,0.0354,3.22,4.05,inactive
FAIM,1,1.34,12.4,9.28,inactive
FAIM,2,1.05,10.4,8.43,inactive
FAIM,3,1.23,11.6,6.84,inactive
LOC648934,1,1.61,14.3,9.55,inactive
LOC648934,2,1.4,12.8,7.9,inactive
LOC648934,3,0.305,5.11,4.29,inactive
FABP4,1,8.43,62.3,27.8,active
FABP4,2,0.119,3.8,6.71,inactive
FABP4,3,1.71,15,8.99,inactive
